One molecule from PMC12308066 can be followed below.

By UniProt entry, the sequences of proteins in these tests, tags left out.
UniProt P04150: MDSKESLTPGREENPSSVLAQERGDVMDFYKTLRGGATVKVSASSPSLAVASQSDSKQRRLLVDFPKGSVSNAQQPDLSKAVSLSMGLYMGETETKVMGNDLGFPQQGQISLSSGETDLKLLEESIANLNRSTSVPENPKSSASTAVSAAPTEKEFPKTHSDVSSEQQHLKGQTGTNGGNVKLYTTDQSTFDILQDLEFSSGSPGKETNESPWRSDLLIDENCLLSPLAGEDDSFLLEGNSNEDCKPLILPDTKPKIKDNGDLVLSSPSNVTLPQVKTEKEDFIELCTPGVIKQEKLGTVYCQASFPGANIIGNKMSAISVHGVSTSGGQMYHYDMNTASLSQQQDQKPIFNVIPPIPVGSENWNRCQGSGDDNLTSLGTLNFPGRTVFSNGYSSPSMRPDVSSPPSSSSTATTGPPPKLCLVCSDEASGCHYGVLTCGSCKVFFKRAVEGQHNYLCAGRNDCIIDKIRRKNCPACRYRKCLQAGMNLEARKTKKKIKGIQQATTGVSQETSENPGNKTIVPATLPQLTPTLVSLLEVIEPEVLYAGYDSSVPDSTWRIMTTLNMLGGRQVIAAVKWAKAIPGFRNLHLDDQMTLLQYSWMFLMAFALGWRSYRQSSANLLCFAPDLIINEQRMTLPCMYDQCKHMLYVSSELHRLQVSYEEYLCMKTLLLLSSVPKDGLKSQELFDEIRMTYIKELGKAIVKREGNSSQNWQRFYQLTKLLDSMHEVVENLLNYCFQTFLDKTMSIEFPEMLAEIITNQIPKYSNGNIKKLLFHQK

For this assay, the target named is nuclear receptor subfamily 3 group C member 1 (NR3C1), HA-tagged (UniProt P04150). The experiment in a line: co-IP; CR cell lines; NR3C1-HA and OGT-Flag cotransfected; NP-40 lysate; anti-HA or anti-Flag antibody or species-matched IgG overnight at 4 °C, protein A/G magnetic beads; Western blot.

Results are given in words; binding and its absence hold for the method and conditions named. In cells and extracts the contact can be indirect. Some results given as binding are weak or reduced against the parent protein; the word gives no strength. Sequences can lack the tags named with a protein.

B1: O-GlcNAc transferase (OGT), Flag-tagged (enzyme, UniProt O15294 1-1046)
chain: MASSVGNVADSTEPTKRMLSFQGLAELAHREYQAGDFEAAERHCMQLWRQEPDNTGVLLLLSSIHFQCRRLDRSAHFSTLAIKQNPLLAEAYSNLGNVYKERGQLQEAIEHYRHALRLKPDFIDGYINLAAALVAAGDMEGAVQAYVSALQYNPDLYCVRSDLGNLLKALGRLEEAKACYLKAIETQPNFAVAWSNLGCVFNAQGEIWLAIHHFEKAVTLDPNFLDAYINLGNVLKEARIFDRAVAAYLRALSLSPNHAVVHGNLACVYYEQGLIDLAIDTYRRAIELQPHFPDAYCNLANALKEKGSVAEAEDCYNTALRLCPTHADSLNNLANIKREQGNIEEAVRLYRKALEVFPEFAAAHSNLASVLQQQGKLQEALMHYKEAIRISPTFADAYSNMGNTLKEMQDVQGALQCYTRAIQINPAFADAHSNLASIHKDSGNIPEAIASYRTALKLKPDFPDAYCNLAHCLQIVCDWTDYDERMKKLVSIVADQLEKNRLPSVHPHHSMLYPLSHGFRKAIAERHGNLCLDKINVLHKPPYEHPKDLKLSDGRLRVGYVSSDFGNHPTSHLMQSIPGMHNPDKFEVFCYALSPDDGTNFRVKVMAEANHFIDLSQIPCNGKAADRIHQDGIHILVNMNGYTKGARNELFALRPAPIQAMWLGYPGTSGALFMDYIITDQETSPAEVAEQYSEKLAYMPHTFFIGDHANMFPHLKKKAVIDFKSNGHIYDNRIVLNGIDLKAFLDSLPDVKIVKMKCPDGGDNADSSNTALNMPVIPMNTIAEAVIEMINRGQIQITINGFSISNGLATTQINNKAATGEEVPRTIIVTTRSQYGLPEDAIVYCNFNQLYKIDPSTLQMWANILKRVPNSVLWLLRFPAVGEPNIQQYAQNMGLPQNRIIFSPVAPKEEHVRRGQLADVCLDTPLCNGHTTGMDVLWAGTPMVTMPGETLASRVAASQLTCLGCLELIAKNRQEYEDIAVKLGTDLEYLKKVRGKVWKQRISSPLFNTKQYTMELERLYLQMWEHYAAGNKPDHMIKPVEVTESA
Regarding B1, the binding entry is “binds”.
